In paper PMC8494447 one finds binding data, which are given here for 1 substance.

By UniProt entry, the sequences of proteins in these tests, tags left out.
UniProt Q13546: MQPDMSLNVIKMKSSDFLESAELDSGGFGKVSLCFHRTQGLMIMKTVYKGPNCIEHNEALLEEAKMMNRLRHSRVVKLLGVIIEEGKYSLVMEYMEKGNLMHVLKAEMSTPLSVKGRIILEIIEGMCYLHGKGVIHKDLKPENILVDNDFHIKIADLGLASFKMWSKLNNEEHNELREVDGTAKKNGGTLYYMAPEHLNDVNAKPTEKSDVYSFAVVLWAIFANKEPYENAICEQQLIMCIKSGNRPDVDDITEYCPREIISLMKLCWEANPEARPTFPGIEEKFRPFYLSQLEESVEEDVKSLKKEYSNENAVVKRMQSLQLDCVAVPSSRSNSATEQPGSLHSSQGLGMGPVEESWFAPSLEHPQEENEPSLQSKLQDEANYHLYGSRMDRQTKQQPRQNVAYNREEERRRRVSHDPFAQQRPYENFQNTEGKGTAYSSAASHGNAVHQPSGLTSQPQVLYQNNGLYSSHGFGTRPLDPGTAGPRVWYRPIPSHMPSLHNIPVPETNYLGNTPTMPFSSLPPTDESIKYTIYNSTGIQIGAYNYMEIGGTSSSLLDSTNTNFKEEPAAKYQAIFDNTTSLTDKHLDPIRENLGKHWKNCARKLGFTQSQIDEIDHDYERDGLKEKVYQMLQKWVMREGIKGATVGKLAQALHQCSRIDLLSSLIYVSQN

No constants are given. Whether binding was seen depends on the method and setting. In cells and extracts the contact can be indirect. A yes stands for co-enrichment or nearness to the bait. Other partners may have been found.

This test concerns the target SFB-RIP1 (UniProt Q13546). The test can be described thus: affinity purification with mass spectrometry; SFB-RIP1 transiently expressed in HEK293T; lysate on streptavidin Sepharose 4 h 4°C, biotin elution, then S-protein agarose overnight 4°C; nano-LC-MS/MS.

In the case of “heat shock protein 90-α, endogenous in HEK293T (from UniProt P07900 1-732)”, the binding result is listed as “binds”.
